From the supplement of paper PMC10849652
The list shows a part of the results.

Sequences of proteins named here, by UniProt entry; tags and fusion partners are left off. A change or cut given only in a name is not applied to a line headed by its entry.
UniProt Q8N300: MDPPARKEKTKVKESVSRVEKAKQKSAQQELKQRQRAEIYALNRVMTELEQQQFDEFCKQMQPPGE
UniProt O43759: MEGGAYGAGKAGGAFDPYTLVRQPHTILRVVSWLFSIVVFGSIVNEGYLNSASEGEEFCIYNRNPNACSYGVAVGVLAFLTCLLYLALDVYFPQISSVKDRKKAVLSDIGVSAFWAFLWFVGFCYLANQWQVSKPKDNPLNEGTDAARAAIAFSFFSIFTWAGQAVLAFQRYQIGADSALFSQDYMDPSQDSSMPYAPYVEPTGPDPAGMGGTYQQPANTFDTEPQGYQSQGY
UniProt Q9UBS9: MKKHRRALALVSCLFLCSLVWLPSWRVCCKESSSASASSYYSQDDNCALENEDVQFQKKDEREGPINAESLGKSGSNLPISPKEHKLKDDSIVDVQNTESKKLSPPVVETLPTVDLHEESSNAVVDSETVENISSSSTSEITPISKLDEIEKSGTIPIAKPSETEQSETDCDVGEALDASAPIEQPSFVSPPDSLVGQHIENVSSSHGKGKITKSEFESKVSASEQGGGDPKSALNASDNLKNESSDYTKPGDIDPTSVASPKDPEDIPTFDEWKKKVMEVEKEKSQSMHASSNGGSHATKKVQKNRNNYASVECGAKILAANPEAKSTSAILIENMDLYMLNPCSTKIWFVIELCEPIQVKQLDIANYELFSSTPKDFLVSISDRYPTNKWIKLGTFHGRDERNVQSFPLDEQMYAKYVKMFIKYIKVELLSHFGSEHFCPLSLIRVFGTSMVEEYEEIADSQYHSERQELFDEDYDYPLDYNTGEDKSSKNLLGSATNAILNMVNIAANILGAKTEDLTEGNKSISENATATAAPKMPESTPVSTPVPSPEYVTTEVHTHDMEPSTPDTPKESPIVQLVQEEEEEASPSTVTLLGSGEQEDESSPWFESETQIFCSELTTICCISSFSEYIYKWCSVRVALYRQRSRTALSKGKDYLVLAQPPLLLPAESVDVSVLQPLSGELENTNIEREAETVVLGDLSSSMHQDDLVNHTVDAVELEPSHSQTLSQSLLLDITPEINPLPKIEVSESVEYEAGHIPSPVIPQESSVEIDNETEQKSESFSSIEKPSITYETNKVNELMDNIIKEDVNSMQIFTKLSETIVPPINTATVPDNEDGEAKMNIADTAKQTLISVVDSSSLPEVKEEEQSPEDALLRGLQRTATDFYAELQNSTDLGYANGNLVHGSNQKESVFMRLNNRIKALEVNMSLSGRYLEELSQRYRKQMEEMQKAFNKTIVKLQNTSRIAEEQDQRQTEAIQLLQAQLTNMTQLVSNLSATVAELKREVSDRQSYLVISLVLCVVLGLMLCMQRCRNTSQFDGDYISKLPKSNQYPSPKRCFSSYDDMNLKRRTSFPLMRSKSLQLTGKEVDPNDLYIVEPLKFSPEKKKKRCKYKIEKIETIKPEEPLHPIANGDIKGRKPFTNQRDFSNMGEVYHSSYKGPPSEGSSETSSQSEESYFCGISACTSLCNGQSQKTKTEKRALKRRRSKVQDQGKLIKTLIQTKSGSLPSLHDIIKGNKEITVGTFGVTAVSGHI
UniProt O60506: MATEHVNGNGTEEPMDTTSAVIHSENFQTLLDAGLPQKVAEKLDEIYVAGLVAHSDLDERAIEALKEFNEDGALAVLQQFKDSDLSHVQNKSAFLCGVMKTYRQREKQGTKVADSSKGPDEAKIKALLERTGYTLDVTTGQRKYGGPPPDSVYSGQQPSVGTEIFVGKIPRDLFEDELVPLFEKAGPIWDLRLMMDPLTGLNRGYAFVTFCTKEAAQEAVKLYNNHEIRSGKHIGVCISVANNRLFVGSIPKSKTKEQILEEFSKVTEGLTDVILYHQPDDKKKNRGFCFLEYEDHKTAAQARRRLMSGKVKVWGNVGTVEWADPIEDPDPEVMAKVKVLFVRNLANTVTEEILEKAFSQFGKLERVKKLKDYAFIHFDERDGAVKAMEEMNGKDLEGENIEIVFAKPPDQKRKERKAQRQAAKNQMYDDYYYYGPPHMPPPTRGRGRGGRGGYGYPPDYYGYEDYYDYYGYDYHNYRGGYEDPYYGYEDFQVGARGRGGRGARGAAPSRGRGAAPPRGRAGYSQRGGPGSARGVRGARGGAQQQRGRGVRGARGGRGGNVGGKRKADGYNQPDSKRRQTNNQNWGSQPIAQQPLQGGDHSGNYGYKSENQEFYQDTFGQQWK
UniProt Q8TDR2: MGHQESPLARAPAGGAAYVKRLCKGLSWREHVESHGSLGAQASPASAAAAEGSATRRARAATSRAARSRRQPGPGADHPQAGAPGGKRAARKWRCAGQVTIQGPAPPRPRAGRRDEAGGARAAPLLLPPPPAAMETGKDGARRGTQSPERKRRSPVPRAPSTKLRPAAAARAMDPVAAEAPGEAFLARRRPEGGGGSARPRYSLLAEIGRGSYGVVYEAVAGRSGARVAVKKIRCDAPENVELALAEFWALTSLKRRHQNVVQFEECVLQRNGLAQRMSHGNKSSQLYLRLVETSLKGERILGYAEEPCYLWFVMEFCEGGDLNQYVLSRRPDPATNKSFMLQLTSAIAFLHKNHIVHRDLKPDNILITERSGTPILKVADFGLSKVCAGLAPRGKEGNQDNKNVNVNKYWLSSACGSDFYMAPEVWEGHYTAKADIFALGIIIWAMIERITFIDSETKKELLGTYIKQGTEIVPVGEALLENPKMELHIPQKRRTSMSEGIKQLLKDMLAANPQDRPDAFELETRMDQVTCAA
UniProt Q9UH99: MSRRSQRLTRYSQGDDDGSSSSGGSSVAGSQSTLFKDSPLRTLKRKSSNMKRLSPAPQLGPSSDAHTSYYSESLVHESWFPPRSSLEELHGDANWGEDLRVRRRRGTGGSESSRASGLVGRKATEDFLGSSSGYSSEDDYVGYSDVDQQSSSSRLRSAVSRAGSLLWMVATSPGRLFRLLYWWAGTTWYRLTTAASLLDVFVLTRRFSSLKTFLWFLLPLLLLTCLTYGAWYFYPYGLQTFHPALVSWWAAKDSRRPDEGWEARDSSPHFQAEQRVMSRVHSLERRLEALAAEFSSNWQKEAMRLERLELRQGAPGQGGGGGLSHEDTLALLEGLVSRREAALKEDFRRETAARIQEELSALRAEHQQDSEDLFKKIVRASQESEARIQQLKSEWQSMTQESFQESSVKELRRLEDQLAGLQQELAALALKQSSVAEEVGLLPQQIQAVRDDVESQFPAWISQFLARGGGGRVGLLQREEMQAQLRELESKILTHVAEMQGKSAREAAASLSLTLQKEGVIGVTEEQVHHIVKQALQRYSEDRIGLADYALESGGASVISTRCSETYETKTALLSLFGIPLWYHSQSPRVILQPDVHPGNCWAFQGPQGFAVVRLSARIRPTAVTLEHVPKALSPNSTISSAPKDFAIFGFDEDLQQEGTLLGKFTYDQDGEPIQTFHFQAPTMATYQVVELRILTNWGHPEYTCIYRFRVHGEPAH
UniProt Q13188: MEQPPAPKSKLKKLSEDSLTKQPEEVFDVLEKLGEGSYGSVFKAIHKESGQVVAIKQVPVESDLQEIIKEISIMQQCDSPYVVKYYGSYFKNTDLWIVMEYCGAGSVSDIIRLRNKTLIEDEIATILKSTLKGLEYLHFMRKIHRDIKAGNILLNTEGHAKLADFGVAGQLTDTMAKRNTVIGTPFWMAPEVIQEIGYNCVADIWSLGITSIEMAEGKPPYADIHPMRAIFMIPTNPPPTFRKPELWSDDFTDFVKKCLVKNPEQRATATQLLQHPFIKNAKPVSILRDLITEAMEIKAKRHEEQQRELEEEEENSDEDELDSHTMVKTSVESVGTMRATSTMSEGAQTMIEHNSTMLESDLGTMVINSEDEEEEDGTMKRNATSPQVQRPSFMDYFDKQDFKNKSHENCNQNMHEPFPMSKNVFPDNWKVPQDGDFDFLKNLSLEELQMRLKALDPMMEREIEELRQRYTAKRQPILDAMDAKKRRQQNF
UniProt O75486: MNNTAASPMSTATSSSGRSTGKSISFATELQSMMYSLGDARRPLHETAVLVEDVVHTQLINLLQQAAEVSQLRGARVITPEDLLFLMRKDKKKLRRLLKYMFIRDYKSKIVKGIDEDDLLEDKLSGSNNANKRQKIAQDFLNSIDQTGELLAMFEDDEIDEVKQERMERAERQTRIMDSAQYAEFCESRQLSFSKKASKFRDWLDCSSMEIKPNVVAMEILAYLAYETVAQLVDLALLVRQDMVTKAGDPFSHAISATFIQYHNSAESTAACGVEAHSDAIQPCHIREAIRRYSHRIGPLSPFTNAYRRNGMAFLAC
UniProt P0DMM9: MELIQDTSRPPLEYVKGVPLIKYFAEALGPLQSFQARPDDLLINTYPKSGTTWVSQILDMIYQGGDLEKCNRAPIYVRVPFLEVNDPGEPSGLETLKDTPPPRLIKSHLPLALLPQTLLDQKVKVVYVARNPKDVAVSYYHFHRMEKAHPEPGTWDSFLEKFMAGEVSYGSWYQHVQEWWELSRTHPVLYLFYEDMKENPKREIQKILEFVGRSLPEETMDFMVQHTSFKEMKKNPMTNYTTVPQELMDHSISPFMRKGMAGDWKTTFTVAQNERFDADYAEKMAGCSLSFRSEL
UniProt Q9H668: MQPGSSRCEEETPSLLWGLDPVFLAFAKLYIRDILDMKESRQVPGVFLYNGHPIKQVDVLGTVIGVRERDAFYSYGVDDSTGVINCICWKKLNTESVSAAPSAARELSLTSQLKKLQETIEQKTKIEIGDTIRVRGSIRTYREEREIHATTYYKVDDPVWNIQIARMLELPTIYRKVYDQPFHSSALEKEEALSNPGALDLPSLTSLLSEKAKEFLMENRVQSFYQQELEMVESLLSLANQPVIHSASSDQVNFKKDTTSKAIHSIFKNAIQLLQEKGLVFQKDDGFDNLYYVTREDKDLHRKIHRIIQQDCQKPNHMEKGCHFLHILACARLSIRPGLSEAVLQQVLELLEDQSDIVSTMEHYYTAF
UniProt Q9P289: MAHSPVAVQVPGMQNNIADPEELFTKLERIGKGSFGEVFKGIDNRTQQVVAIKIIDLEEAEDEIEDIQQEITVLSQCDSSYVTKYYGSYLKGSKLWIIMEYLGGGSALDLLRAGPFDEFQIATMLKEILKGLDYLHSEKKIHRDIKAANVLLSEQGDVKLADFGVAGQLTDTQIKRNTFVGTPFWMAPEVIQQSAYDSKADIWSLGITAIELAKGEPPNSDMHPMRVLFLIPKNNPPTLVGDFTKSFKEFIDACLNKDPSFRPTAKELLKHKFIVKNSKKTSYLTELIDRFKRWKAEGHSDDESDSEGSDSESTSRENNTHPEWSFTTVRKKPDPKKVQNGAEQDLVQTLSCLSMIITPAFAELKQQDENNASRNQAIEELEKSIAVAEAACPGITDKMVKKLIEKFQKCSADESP
UniProt Q6UWL2: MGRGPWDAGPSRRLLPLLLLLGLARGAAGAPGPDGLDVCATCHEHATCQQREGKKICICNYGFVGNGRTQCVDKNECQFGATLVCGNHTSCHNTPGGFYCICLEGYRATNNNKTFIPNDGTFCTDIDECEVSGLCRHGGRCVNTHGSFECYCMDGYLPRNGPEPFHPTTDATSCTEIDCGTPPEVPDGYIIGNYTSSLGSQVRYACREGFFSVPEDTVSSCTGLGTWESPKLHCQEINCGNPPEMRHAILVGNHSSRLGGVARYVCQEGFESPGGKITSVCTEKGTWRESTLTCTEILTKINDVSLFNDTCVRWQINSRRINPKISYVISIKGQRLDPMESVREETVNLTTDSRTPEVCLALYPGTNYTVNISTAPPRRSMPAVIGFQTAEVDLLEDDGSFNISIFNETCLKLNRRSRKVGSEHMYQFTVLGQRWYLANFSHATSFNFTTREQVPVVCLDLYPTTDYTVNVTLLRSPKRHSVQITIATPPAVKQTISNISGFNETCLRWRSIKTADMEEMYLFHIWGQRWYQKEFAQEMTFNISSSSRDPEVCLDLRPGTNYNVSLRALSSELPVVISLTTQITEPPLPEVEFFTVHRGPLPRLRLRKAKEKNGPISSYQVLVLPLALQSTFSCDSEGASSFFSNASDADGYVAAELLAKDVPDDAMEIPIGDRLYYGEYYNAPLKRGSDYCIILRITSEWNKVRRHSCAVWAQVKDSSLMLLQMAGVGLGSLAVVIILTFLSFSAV
UniProt O75716, whole entry, looked up: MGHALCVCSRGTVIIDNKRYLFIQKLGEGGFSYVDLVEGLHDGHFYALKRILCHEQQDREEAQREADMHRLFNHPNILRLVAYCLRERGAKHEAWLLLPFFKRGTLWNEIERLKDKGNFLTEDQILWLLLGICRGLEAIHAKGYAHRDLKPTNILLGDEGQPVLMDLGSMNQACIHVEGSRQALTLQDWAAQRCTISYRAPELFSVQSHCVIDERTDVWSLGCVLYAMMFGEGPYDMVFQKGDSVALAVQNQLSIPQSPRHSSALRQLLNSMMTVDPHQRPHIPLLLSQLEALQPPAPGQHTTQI

Compound: c1cn2cc(-c3ccc4cn[nH]c4c3)nc(Nc3ccc(N4CCOCC4)cc3)c2n1 [entospletinib]
Assay: log2 fold change, soluble protein after heating vs DMSO (PISA); higher = thermal stabilisation; K562 lysate, 10 uM; active = over 0.2 and 3.5 SD of the protein, either way, in both replicates (recomputed)
Procedure, shortened: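 The values are log-two fold changes in thermal stability compared with solvent controls and come from duplicates. They were obtained by TMTpro 16plex LC-MS/MS, with channel sums equalised, on the supernatant after 21,000xg for 90 min. That supernatant came from crude K562 extract at 1 mg/mL protein treated with 10 μM compound for 30 min, heated for 3 min across 48°C-58°C, pooled and brought to 0.5% NP-40 at 4°C.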

log2 fold change, inactive:
SYNM (UniProt O15061) -0.081, SVBP (UniProt Q8N300) 0.136, SYNGR1 isoform 2 (UniProt O43759) -0.034, TAF1C (UniProt Q15572) 0.046, SUCO isoform 2 (UniProt Q9UBS9) -0.061, SYNCRIP isoform 3 (UniProt O60506) 0.019, STK35 (UniProt Q8TDR2) 0.067, SUN2 isoform 2 (UniProt Q9UH99) 0.078, STK3 isoform 2 (UniProt Q13188) -0.003, SZT2 (UniProt Q5T011) -0.1, STK38L (UniProt Q9Y2H1) 0.043, SUPT3H (UniProt O75486) -0.345, STRN3 (UniProt H0YJT2) -0.075, SULT1A3 isoform 3 (UniProt P0DMM9) -0.041, STN1 (UniProt Q9H668) 0.049, STK26 isoform 3 (UniProt Q9P289) 0.116, SUGCT isoform 3 (UniProt Q9HAC7) 0.139, SUSD1 isoform 2 (UniProt Q6UWL2) -0.048, STK16 (UniProt O75716) 0.189
